# These are yes or no findings as the source states them, for the method shown. Binding seen in cells or lysates may run through a third protein. Some entries that bind do so weakly or less than the wild type.
# The chains behind the UniProt entries cited, without tags or fusion partners.
# UniProt Q62167: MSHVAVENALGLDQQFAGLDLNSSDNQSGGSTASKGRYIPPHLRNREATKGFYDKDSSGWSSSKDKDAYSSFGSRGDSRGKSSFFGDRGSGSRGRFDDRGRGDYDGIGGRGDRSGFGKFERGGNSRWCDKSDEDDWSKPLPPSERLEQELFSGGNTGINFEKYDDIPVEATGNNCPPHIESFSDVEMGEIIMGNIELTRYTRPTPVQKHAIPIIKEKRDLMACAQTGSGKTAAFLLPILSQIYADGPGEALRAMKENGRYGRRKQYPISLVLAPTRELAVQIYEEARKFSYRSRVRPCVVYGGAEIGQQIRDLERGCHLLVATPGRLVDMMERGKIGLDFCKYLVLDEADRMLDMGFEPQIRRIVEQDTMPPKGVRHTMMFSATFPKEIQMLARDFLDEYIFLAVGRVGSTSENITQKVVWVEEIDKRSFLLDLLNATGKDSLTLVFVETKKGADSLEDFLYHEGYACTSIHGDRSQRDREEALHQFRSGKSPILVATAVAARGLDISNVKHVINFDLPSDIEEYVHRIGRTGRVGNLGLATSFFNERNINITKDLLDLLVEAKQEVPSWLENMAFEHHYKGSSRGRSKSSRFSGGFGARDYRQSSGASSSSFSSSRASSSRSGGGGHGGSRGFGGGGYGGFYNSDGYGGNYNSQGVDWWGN
# UniProt Q8R4B8: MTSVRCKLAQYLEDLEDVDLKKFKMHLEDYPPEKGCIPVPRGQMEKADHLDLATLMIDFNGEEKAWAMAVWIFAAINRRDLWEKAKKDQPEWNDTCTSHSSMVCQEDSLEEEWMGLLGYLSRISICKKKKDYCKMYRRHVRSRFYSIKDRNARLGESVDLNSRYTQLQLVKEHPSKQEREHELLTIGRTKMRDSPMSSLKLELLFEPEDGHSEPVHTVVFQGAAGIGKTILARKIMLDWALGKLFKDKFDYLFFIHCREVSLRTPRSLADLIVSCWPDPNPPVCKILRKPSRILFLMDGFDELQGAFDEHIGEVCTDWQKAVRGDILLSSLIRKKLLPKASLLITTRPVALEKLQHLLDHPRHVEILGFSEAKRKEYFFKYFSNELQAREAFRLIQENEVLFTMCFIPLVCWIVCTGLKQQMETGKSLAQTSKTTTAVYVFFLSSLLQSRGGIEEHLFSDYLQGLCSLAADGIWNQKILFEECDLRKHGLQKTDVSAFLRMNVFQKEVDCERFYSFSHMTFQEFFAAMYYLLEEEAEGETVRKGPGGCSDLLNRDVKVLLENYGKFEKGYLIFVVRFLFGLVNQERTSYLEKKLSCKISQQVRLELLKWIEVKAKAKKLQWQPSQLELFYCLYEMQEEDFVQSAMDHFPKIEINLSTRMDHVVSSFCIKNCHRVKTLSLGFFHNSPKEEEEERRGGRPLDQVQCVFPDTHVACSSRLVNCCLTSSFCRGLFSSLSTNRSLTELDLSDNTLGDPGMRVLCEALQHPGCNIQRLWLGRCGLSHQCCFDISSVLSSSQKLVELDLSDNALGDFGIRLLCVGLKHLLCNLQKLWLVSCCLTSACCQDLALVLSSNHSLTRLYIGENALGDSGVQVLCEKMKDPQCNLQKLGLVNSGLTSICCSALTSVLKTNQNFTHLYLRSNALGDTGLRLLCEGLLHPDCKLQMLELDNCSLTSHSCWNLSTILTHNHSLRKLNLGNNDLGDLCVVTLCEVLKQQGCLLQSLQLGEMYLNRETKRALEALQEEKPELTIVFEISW
# Columns and labels:
# [1] = target: DEAD-box helicase 3, X-linked (mouse (endogenous in BMDMs and primary hepatocytes)) (UniProt Q62167); assay: co-IP; endogenous proteins in mouse BMDMs under PA induction; bait not given
# [2] = target: DEAD-box helicase 3, X-linked (mouse (endogenous in BMDMs and primary hepatocytes)) (UniProt Q62167); assay: co-IP; endogenous proteins in mouse primary hepatocytes under PA induction; bait not given
substance,measurement,setting,value
NOD-like receptor family pyrin domain containing 3 (from UniProt Q8R4B8 1-1033),binding,[1],binds
same,binding,[2],binds

# Source: publication PMC10712874
